# Test results from article PMC12040169 (PLOS Biology, 2025).
# The other results are listed elsewhere or left out.
# System: T1, CTL2-GFP (C. trachomatis L2/434/Bu, GFP-expressing)
# T1 construct: L2/434/Bu, GFP-expressing
# Set-up: species or system HeLa; Intracellular C. trachomatis growth in HeLa cells, bulk GFP fluorescence relative to DMSO
# Conditions: bulk GFP, single well; 28.5 h, 10 µM; inhibitor
row,SMILES,% of control remaining
1,CS(=O)(=O)Nc1ccc2[nH]ccc2c1 [CBK062728],108.614%
2,OC1(c2cccnc2F)CCN(Cc2c(F)cccc2Cl)CC1 [CBK283148],136.07%
3,Fc1ccccc1CN(CCCn1ccnc1)Cc1cccnc1 [CBK283099],117.553%
4,CC1CCN(Cc2nc3c(c(=O)n(C)c(=O)n3C)n2CCN2CCOCC2)CC1 [CBK269291],139.426%
5,CCNC(=O)N1CCN(CCOC(c2ccc(F)cc2)c2ccc(F)cc2)CC1 [CBK024943C],100%
6,COc1ccc(Nc2nc(-c3ccc(F)cc3)cs2)c(OC)c1 [CBK131705],105.596%
7,CN(c1ccccc1C(N)=O)S(=O)(=O)c1ccc(S(=O)(=O)C(F)F)cc1 [CBK298289],128.861%
8,COc1cccc(C(=O)Nc2nc(-c3ccccc3)cs2)c1OC [CBK287697],114.171%
9,CC(NC(=O)C1CC(=O)N(Cc2ccccn2)C1)c1ccc(F)cc1 (centres unmarked) [CBK304552],130.209%
10,CN(C)CCN1CCN(c2nc(-c3ccc4c(c3)OCO4)cnc2N)CC1 [CBK063495],183.567%
11,CC(C)OC(=O)N1CCC(CNc2ncc(-c3ccc(S(C)(=O)=O)cc3)cn2)CC1 [CBK165367],77.4363%
12,CSc1nsc(NC(=O)Nc2ccccc2)n1 [CBK027286],63.1802%
13,O=C(COc1ccccc1O)NCCN1CCOCC1 [CBK262243C],129.053%
14,c1ccc2cc(-c3cncc(NCc4ccncc4)n3)ccc2c1 [CBK037899],77.0923%
15,O=C(NC1CCCN(c2cc(-c3ccncc3)n[nH]2)C1)c1ccsc1 (centres unmarked) [CBK288619],118.571%
16,O=C(COc1ccccc1)N1CCCC1c1cccc(Cc2ccc(F)cc2)n1 (centres unmarked) [CBK286230],111.179%
17,CC1(C)C2CCC1(CS(=O)(=O)N1CCC(C(N)=O)CC1)C(=O)C2 (centres unmarked) [CBK269499],143.461%
18,COc1cccc(C2(O)CCC3CN(C(C)=O)CC32)c1 (centres unmarked) [CBK283222],117.672%
19,Cc1noc(C)c1NC(=O)CN1CCOCC1 [CBK200381],64.8852%
20,c1coc(CNc2cncc(-c3cccs3)n2)c1 [CBK065630],157.657%
21,O=C(NCc1ccccc1)c1ccc2[nH]nnc2c1 [CBK200368],111.667%
22,O=C(C1CCC1)N1C2CCC1CC(O)(c1ccc(F)cc1)C2 (centres unmarked) [CBK283547],107.531%
23,O=S(=O)(c1ccc(F)cc1F)n1ccc2c(N3CCNCC3)nccc21 [CBK059061C],98.2239%
24,COc1cccc(NS(=O)(=O)c2cc(CC(=O)O)ccc2OC)c1 [CBK298333],172.112%
25,Cc1nnc(SCC(=O)Nc2nonc2C)s1 [CBK269227],151.247%
26,Cc1ccc(NS(=O)(=O)c2ccc(OCC(=O)N3CCN(C)CC3)c(C)c2)cc1 [CBK267834],86.6747%
27,COC1C(O)C(CO)OC1n1cnc2c(=O)[nH]c(N)nc21 (centres unmarked) [CBK201324],157.463%

# 10 successive records already listed:
row,SMILES,% of control remaining
2,OC1(c2cccnc2F)CCN(Cc2c(F)cccc2Cl)CC1 [CBK283148],136.07%
3,Fc1ccccc1CN(CCCn1ccnc1)Cc1cccnc1 [CBK283099],117.553%
4,CC1CCN(Cc2nc3c(c(=O)n(C)c(=O)n3C)n2CCN2CCOCC2)CC1 [CBK269291],139.426%
5,CCNC(=O)N1CCN(CCOC(c2ccc(F)cc2)c2ccc(F)cc2)CC1 [CBK024943C],100%
6,COc1ccc(Nc2nc(-c3ccc(F)cc3)cs2)c(OC)c1 [CBK131705],105.596%
7,CN(c1ccccc1C(N)=O)S(=O)(=O)c1ccc(S(=O)(=O)C(F)F)cc1 [CBK298289],128.861%
8,COc1cccc(C(=O)Nc2nc(-c3ccccc3)cs2)c1OC [CBK287697],114.171%
9,CC(NC(=O)C1CC(=O)N(Cc2ccccn2)C1)c1ccc(F)cc1 (centres unmarked) [CBK304552],130.209%
10,CN(C)CCN1CCN(c2nc(-c3ccc4c(c3)OCO4)cnc2N)CC1 [CBK063495],183.567%
11,CC(C)OC(=O)N1CCC(CNc2ncc(-c3ccc(S(C)(=O)=O)cc3)cn2)CC1 [CBK165367],77.4363%

# Further structures

row,SMILES,% of control remaining
1,FC(F)(F)c1ccnc(Sc2ccncc2)c1 [CBK093793],118.431%
2,Cc1cccnc1C(NC(=O)C1CCN(Cc2cccn2C)CC1)c1ccc(Cl)cc1 (centres unmarked) [CBK148174],109.562%
3,COc1cc(OC)nc(C(NC(=O)C2CCN(Cc3nccs3)CC2)c2ccc(Cl)cc2)n1 (centres unmarked) [CBK148217],184.553%
4,CSCCC(NC(=O)NCCc1ccccc1)c1nnc2ccccn12 (centres unmarked) [CBK304417],134.69%
5,CN1C(=O)C(C)(C)Oc2ccc(C(O)c3ccco3)cc21 (centres unmarked) [CBK284469],131.854%
6,CCSc1nnc(NC(=O)c2cnc(SC)nc2CC)s1 [CBK291250],161.916%
7,CCc1nnc(N/N=C/c2cc(Cl)c(OCc3ccccc3F)c(OC)c2)n1N [CBK278282C],111.771%
8,CN1C2CCC1CC(OC(=O)c1cccnc1)C2 (centres unmarked) [CBK026000],122.046%
9,CC(=O)Nc1cccc(C(=O)OCC(=O)N2CCCCC2C)c1 (centres unmarked) [CBK305868],143.553%
10,CCNC(=O)Nc1nc2cccnc2cc1-c1ccc(OC)c(C)c1 [CBK081241],100%
11,c1cnc(N2CCCC2)c(OC2CCCNC2)n1 (centres unmarked) [CBK115283],134.966%
12,O=C(O)[C@@H]1CSC(c2ccc(C(F)(F)F)cc2)N1 (some centres unmarked) [CBK286921],127.247%
13,COc1cccc(-c2cccc(C3CCCN(C(=O)Cc4c[nH]c5ccccc45)C3)n2)c1 (centres unmarked) [CBK286207],90.0619%
14,CCC(=O)N1CCC2(CC1)Nc1ccccc1-n1cccc12 [CBK283488],90.7102%
15,Cc1ccc(S(=O)(=O)N2CCOCC2)cc1S(=O)(=O)N1CCOCC1 [CBK261733],102.702%
16,O=C(Nc1ccc(F)cc1)c1sccc1NS(=O)(=O)c1cc(F)c(Br)cc1F [CBK004586],92.4438%
17,Cn1nc2c(c1C(=O)NCC(C)(C)N1CCCCC1)CCCC2 [CBK281878],130.284%
18,CCCc1nc(NC(CCO)c2ccc(C)cc2)c2cnn(C)c2n1 (centres unmarked) [CBK307309],103.127%
19,Cc1ccc(-c2nc(C)c(C(=O)Nc3ccc(-n4cncn4)nc3)s2)o1 [CBK297770],126.375%
20,Cc1cc(NC(=O)C2CCN(C)CC2)c2ccccc2n1 [CBK122730],130.648%
21,Cc1nn(C)cc1C(C)NC(=O)c1ccc2c(c1)ncn2C (centres unmarked) [CBK281732],110.585%
22,CN(C)c1ccc(/C=N/NC(=O)CSc2nnc(-c3ccccc3)n2-c2ccccc2)cc1 [CBK262263],100%
23,OCCCNc1nccnc1-c1cccnc1 [CBK037277],127.878%
24,Cc1nc(NC(=O)C2Cc3ccccc3S2)sc1-c1n[nH]c(=S)n1C (centres unmarked) [CBK295337],144.652%
25,COc1cccc(OC)c1OCCN1CCC(NC(=O)Nc2ccc(Cl)cn2)CC1 [CBK051515],100%
26,CC1CCN(Cc2ccc(-c3cn(CC(=O)NCc4ccc(Br)cc4)nn3)cc2)CC1 [CBK164709],84.6361%
